# Results taken from paper PMC10810786.
# These are yes or no findings as the source states them, for the method shown. A result given as binding can be weak or reduced; the word gives no strength.
# Assays:
# [1] = molecular target: recombinant TbEIF4E6-H51A mutant (GST tag removed) (Trypanosoma brucei); assay: nanoDSF (thermal unfolding); purified protein and purified complex in 20 mM Tris-HCl, 150 mM NaCl, 2 mM DTT, pH 8.0; linear ramp from 20 to 80 °C; with and without cap-4; both purified
# [2] = molecular target: recombinant TbEIF4E6-H51A mutant (GST tag removed) (Trypanosoma brucei); assay: SEC; TbEIF4E6-H51A after removal of GST incubated with the purified 4G5 peptide (molar ratio 1/1.1); complex purified on Superdex 75 16/600 in 20 mM Tris-HCl, 150 mM NaCl, 2 mM DTT, pH 8.0; both purified
binder,measurement,setting,value
SSYPEDCVYEIAEFTRLQNTKCLPPKGILQFATDLWKE [TbEIF4G5_79-116 peptide],binding,[1],binds
same,binding,[2],binds
